Measured values from the supplement of paper PMC12889115.
The list shows a part of the results. These are raw signals, not scaled to a control.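 In the initial screen, polymyxin B was used at a concentration that permeabilizes Salmonella's outer membrane but not its inner membrane. Maximum growth was set by DMSO wells with or without polymyxin B. Since plates varied, data were ranked per plate, and compounds giving the lowest OD600 advanced as hits.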

Test system: Salmonella enterica serovar Typhimurium SL1344
Assay: bacterial growth OD600 after 18 h with compound and polymyxin B; higher = more bacterial growth (less inhibition)
Settings: 50 µM, Mueller-Hinton broth

In the case of `CN(Cc1cc(-c2ccccc2)no1)C(=O)C1CCC(=O)N(C2CCCC2)C1` (stereo not drawn), the “bacterial growth OD600” value (polymyxin B 1 µg/mL) is reported as 0.878.
For `CCC(COC)NC(=O)C1CCN(c2nc(C)c3cc(C)c(C)cc3n2)CC1` (stereo not drawn), the “bacterial growth OD600” value (polymyxin B 0.75 µg/mL) was 0.885.
In the case of `CO[C@H]1[C@H](NC(=O)Cc2cccs2)c2ccccc2C12CCN(Cc1cc3ccccc3[nH]1)CC2`, the “bacterial growth OD600” value (polymyxin B 0.75 µg/mL) is reported as 0.834.
For `CN1CCN(CC2(O)CCCN(CC3CCCCC3)C2=O)CC1` (stereo not drawn), the “bacterial growth OD600” value (polymyxin B 1 µg/mL) was 0.909.
`COc1ccc(CC2(CCC(=O)NCC3(c4ccccc4)CC3(C)C)CCC(=O)N2)c(F)c1` (stereo not drawn) was tested, and the “bacterial growth OD600” value (polymyxin B 0.75 µg/mL) was 0.584.
For `Cc1ccccc1C1CCN(CCNC2CCN(c3ccc(NC(=O)c4cnccn4)cc3)CC2)C1` (stereo not drawn), the “bacterial growth OD600” value (polymyxin B 0.75 µg/mL) was 0.726.
In the case of `O=C1CCC(CCC(=O)N2CCC(Sc3ccc(F)cc3)CC2)(Cc2cccs2)N1` (stereo not drawn), the “bacterial growth OD600” value (polymyxin B 0.75 µg/mL) is reported as 0.769.
`CCn1cc(CNC(=O)c2ccc(OC3CCN(C(=O)C4CC4)CC3)cc2)cn1` was tested, and the “bacterial growth OD600” value (polymyxin B 1 µg/mL) was 1.14.
